Several values for one entry are separate records, joined by “and”; a condition that tells them apart may be missing. Equal entries are not always repeated. The whole screen tested about 300,000 compounds, of which about 5,400 (1.8%) were called active. The shares of active, inactive and inconclusive entries below differ from those in the screen. Calls come from the whole dose curve; tested in HEK293 cells. Potencies of inconclusive entries are doubtful fits and often do not repeat.
test: qHTS for inhibitors of binding or entry into cells for Marburg Virus; details: Marburg virus pseudotyped entry inhibition, cell reporter; series mostly up to 37.8 µM
Potency is the fitted concentration of half-maximal effect.

SMILES | Potency
CCS(=O)(=O)CCSc1nc2c(cc1C#N)CCCC2 | inactive
Cc1ccc(CNC(=O)c2ccc(NC(=O)CCS(=O)(=O)c3cccs3)cc2)cc1 | inconclusive: 31.6 µM [activator, single point]
CC(=O)OC[C@H]1O[C@H](C#CCCCc2ccccc2)C=C[C@@H]1OC(C)=O | inconclusive: 0.0038 µM [inhibitor, full curve, poor fit]
O=C1C2ON(c3ccccc3)C(c3ccncc3)C2C(=O)N1c1ccc(Br)cc1 (stereo not drawn) | inactive
CC1CCC(NCC(O)c2ccccc2)CC1 (stereo not drawn) | inactive
Cc1ccc(S(=O)(=O)Nc2ccc3c4c(cccc24)CC3)c(C)c1 | inconclusive: 15.8 µM [inhibitor, single point]
CCCCSc1ncnc2c1sc1nc(N3CCOCC3)c3c(c12)CCCC3 | inconclusive: 0.631 µM [inhibitor, full curve, poor fit]
Cn1c(CCc2nc3ccccc3[nH]2)n[nH]c1=S | inactive
COc1ccc(C(=O)Oc2cccc3cccnc23)cc1S(=O)(=O)N1CCOCC1 | inconclusive: 25.1 µM [inhibitor, single point]
COc1cc(NC(=S)NC(=O)c2c(OC)cccc2OC)ccc1NC(=O)c1cccs1 | inactive
COc1ccc(C(CNS(=O)(=O)c2ccccc2)N2CCN(C)CC2)cc1 (stereo not drawn) | inconclusive: 0.112 µM [activator, full curve, poor fit]
Fc1ccc(CNc2nc3c(-c4ccc(F)cc4)nnn3c3ccccc23)cc1 | inactive
C=CCc1cc(C=C2C(=O)N(C)C(=O)N(C)C2=O)cc(OCC)c1OCc1ccccc1 | inactive
COc1cc(OC)cc(C(=O)N[C@H](C(=O)N2CCc3ccccc32)C(C)C)c1 | inconclusive: 22.4 µM [inhibitor, partial curve, poor fit]
CN(c1ccccc1)S(=O)(=O)c1cccc(NC(=O)CSc2nncs2)c1 | inconclusive: 20 µM [inhibitor, single point]
COc1ccc(-c2csc(C)n2)cc1Br | inconclusive: 35.5 µM [activator, single point]
Cc1cc(C)c(NC(=O)c2sc3nc(C)cc(C)c3c2N)c(C)c1 | inconclusive: 35.5 µM [inhibitor, single point]
COc1ccc(C)cc1NC(=O)CN1CCN(CC(=O)Nc2ccccc2F)CC1 | inconclusive: 7.08 µM [inhibitor, full curve, poor fit]
CCc1cc2ccc(C)cc2nc1SCC(=O)Nc1cc(C)on1 | inconclusive: 35.5 µM [inhibitor, single point]
CC1=NOC(=O)/C1=C/c1ccc(N(C)C)cc1 | inactive
Cc1c(C(=O)N(C)C)sc(NC(=O)c2cccc([N+](=O)[O-])c2)c1C#N | inactive
COc1ccc(NC(=O)CCC(=O)c2ccc(-c3ccccc3)cc2)cc1 | inconclusive: 5.62 µM [inhibitor, single point]
OCCCCNCc1ccc(OCc2ccc(Cl)cc2)cc1 | inconclusive: 29.1 µM [inhibitor, single point]

Some values from above.
`COc1ccc(C(CNS(=O)(=O)c2ccccc2)N2CCN(C)CC2)cc1` (stereo not drawn) – Potency: inconclusive: 0.112 µM [activator, full curve, poor fit]
`CC(=O)OC[C@H]1O[C@H](C#CCCCc2ccccc2)C=C[C@@H]1OC(C)=O` – Potency: inconclusive: 0.0038 µM [inhibitor, full curve, poor fit]
`Fc1ccc(CNc2nc3c(-c4ccc(F)cc4)nnn3c3ccccc23)cc1` – Potency: inactive

Further results

SMILES | Potency
COc1ccc2[nH]cc(CCNC(=O)Nc3ccccc3C)c2c1 | inactive
c1csc(-c2nc(N3CCCCC3)no2)c1 | inconclusive: 14.1 µM [activator, single point]
CCc1ccc(C(=O)CC2(O)C(=O)N(CN3CCOCC3)c3ccccc32)cc1 (stereo not drawn) | inconclusive: 35.5 µM [activator, single point]
Cc1cc(-c2ccco2)n(CC(=O)O)n1 | inactive
C/C(=N\NC(=O)COc1ccc(C)cc1Br)c1cc([N+](=O)[O-])cs1 | inconclusive: 7.94 µM [inhibitor, partial curve, poor fit]
O=C(COC(=O)c1ccc(Cl)cc1)NCC1CCCCC1 | inactive
CNCCc1cnc(CCC(c2ccccc2)c2ccccc2)[nH]1 | active: 5.8 µM
Cc1ccc(-c2nc(N/N=C/c3cccc([N+](=O)[O-])c3)c3ccccc3n2)cc1 | inconclusive: 29.1 µM [inhibitor, single point]
Clc1ccc(-c2nnc(-c3ccc4ccccc4c3)o2)cc1 | inconclusive: 1.26 µM [inhibitor, single point]
CCOC(=O)c1cc2c(=O)n3ccccc3nc2n(Cc2ccco2)c1=NC(=O)c1cc(C)cc(C)c1 | inactive
COc1ccc(CCNc2nc3c(c(=O)n(C)c(=O)n3C)n2Cc2ccc(F)cc2)cc1OC | active: 6.31 µM
CCOc1ccc(NC(=O)CSc2nc(C3CC3)nc3ccccc23)cc1 | inactive
COc1ccc(NC2CCCN(C(=O)CCN3CCCO3)C2)cc1 (stereo not drawn) | inconclusive: 22.4 µM [activator, single point]
Cc1c(C(=O)N2CCOCC2)[nH]c2c1C(=O)CC(c1ccc(Cl)cc1)C2 (stereo not drawn) | inconclusive: 5.62 µM [inhibitor, single point]
CN(C(=O)COc1ccccc1C(=O)NCCOc1ccccc1)c1ccccc1 | inconclusive: 9.2 µM [inhibitor, partial curve, poor fit]
COc1ccc(/C=N/NC(=O)c2cc(OC)c(OC)c(OC)c2)cc1CN1CCc2cc(OC)c(OC)cc2C1C (stereo not drawn) | active: 14.1 µM
CCOC(=O)c1sc(NC(=O)CSc2nc3ccccc3o2)c(C(=O)OCC)c1C | inconclusive: 2 µM [activator, partial curve, poor fit]
COc1ccc(OC)c(CCNC(=O)CCCc2nnc3n(C)c(=O)c4sccc4n23)c1 | inconclusive: 12.6 µM [inhibitor, partial curve, poor fit]
Cc1cc([N+](=O)[O-])c(C)cc1-c1ccc(/C=N/n2cnnc2)o1 | inactive
Cc1cccc(-c2cc3c(nn2)-c2ccccc2C3=O)c1 | inconclusive: 14.1 µM [inhibitor, single point]
CCC(=O)N1CCc2cc(S(=O)(=O)NC(C(=O)NCc3ccc(OC)cc3)C(C)C)ccc21 (stereo not drawn) | inactive
Cc1ccc(Cn2c(C)c(CNC3CCCCC3)c(C(=O)O)c2C)cc1 | inactive
COC(=O)c1cc(Br)c(N)cc1OC | inconclusive: 12.6 µM [activator, single point]

SMILES | Potency
COc1cccc(-n2nnnc2SCC(=O)NC2CCCC2)c1 | inactive
Cc1nnc(SC(C)C(=O)Nc2c(C)n(C)n(-c3ccccc3)c2=O)n1N (stereo not drawn) | inconclusive: 35.5 µM [activator, single point]
O=C(/C=C\c1ccco1)Oc1cccc2cccnc12 | inconclusive: 35.5 µM [inhibitor, single point]
COCCCn1c(-c2ccc(OC)cc2)nc2c1c(=O)[nH]c(=O)n2Cc1ccccc1 | inconclusive: 3.16 µM [inhibitor, partial curve, poor fit]
COc1ccc(-n2c(C)c([N+](=O)[O-])c3ccc(O)c(CN(C)C)c32)cc1 | inconclusive: 35.5 µM [inhibitor, single point]
CCCCN(C)C(=O)Cc1c(OC)ccc2cc(Br)ccc12 | inconclusive: 35.5 µM [inhibitor, single point]
CC(=O)N1CCN(C(=O)c2cc3c(s2)CCC(C)C3)CC1 (stereo not drawn) | inactive
O=[N+]([O-])c1ccccc1S(=O)(=O)NCCc1ccncc1 | inconclusive: 0.316 µM [inhibitor, full curve, poor fit]
CCn1ncc(CN2CCN(Cc3ccc(OC)c(C)c3C)C(CCO)C2)c1C (stereo not drawn) | inconclusive: 0.631 µM [inhibitor, full curve, poor fit]
CCSc1nnc(NC(=O)C(C)(C(F)(F)F)C(F)(F)F)s1 | inconclusive: 29.1 µM [inhibitor, single point]
O=C(CSc1nc2ccccc2n1Cc1ccc(F)c(Cl)c1)N1CCN(c2ccc(F)cc2)CC1 | inconclusive: 3.16 µM [inhibitor, single point]
CN(C)S(=O)(=O)c1cccc(NC(=O)CSc2ncnc3ccccc23)c1 | inconclusive: 10 µM [inhibitor, partial curve, poor fit]
COc1cccc(NC(=S)Nc2cc(C)cc(C)n2)c1 | inconclusive: 3.55 µM [activator, partial curve, poor fit]
Cc1csc(Sc2ccc(S(=O)(=O)N3CCCC3)cn2)n1 | inconclusive: 3.16 µM [activator, partial curve, poor fit]
COc1ccc(-c2cnc(SCC(=O)Nc3ccc4c(c3)OCO4)n2Cc2ccco2)cc1 | inactive and inconclusive: 25.1 µM [inhibitor, single point]
O=c1c2c(nc3n1CCCCC3)sc1c(O)cccc12 | inconclusive: 35.5 µM [inhibitor, single point]
Cc1cc(C)c(NS(=O)(=O)c2ccc(NC(=O)c3cccs3)cc2)c(C)c1 | inconclusive: 0.224 µM [activator, full curve, poor fit]
COc1cc(OC)cc(-c2cc3nc(C)c(CCC(=O)O)c(C)n3n2)c1 | inactive
CCC(=O)NC(=S)Nc1ccc(NC(=O)c2cccc([N+](=O)[O-])c2C)cc1 | inactive
COc1ccc(CCNC(=O)c2ccc(CS(=O)(=O)c3ccc(C)cc3)o2)cc1OC | inactive and inconclusive: 6.51 µM [inhibitor, full curve, poor fit]
CCOC(=O)c1cc(-c2ccccc2)sc1N | inconclusive: 2.24 µM [activator, partial curve, poor fit]
COc1ccc(C)cc1NC(=O)CN(c1ccc(C)cc1)S(C)(=O)=O | inconclusive: 7.08 µM [inhibitor, partial curve, poor fit]
